Literature values in patent publication US10736891B2, “Composition and method for treating chagas disease” (priority 2016, dated 2020).
At least one structure is not confirmed: it was looked up by name or label, or the drawing left a doubt.

System: T. cruzi
Settings: cited from earlier work

Structure (SMILES): CCC(C)n1ncn(-c2ccc(N3CCN(c4ccc(OCC5COC(Cn6cncn6)(c6ccc(Cl)cc6Cl)O5)cc4)CC3)cc2)c1=O (centres unmarked) [Itraconazole]
- anti-rTc24 titers of a patient (by the 6th month, after itraconazole treatment): beneath the cut off points
- outcome of the patient (confirmed by complement-mediated lysis) (itraconazole treatment, previous study Paniz-Mondolfi et al. 2009): parasitologically cured
